Measurements reported in patent US20100160326A1, “PEST CONTROL AGENT CONTAINING NOVEL PYRIDYL-METHANAMINE DERIVATIVE OR SALT THEREOF” (ISHIHARA SANGYO KAISHA, LTD., priority 2006, published 2010).
Some entries share one result that the patent states for a list of compounds.

Experiments:
Type in all cases: in vivo
[1] = system: Common Cutworm (Spodoptera litura); experiment: Test on controlling effects against common cutworm (cabbage leaf disk dip); conditions: 800 ppm, cabbage leaf disk dipped about 10 seconds, second-third instar larvae, fifth day after the release, 25° C.
Source text: Test on Controlling Effects Against Common Cutworm (Spodoptera litura)
Mortality (%)=(Number of dead larvae/number of released larvae)×100

[2] = system: Two-Spotted Spider Mite (Tetranychus urticae); experiment: Test on adults of two-spotted spider mite (kidney bean leaf dip); conditions: 800 ppm, adults dipped together with kidney bean leaf, second or third day after the treatment, 25° C.
Source text: Test on Adults of Two-Spotted Spider Mite (Tetranychus urticae)
Mortality of adults (%)=(Number of dead two-spotted spider mites/Number of treated two-spotted spider mites)×100

[3] = system: Green Peach Aphid (Myzus persicae); experiment: Test on controlling effects against green peach aphid (leaf dip); conditions: 800 ppm, Japanese radish leaf dipped about 10 seconds, first instar nymphs, counted 5 days after the treatment, 25° C.
Source text: Test on Controlling Effects Against Green Peach Aphid (Myzus persicae)
Mortality (%)=(1−(number of survived insects/number of treated insects))×100

Structure (SMILES) | mortality [1] | mortality of adults [2] | mortality [3]
FC(F)(F)c1cc(NCc2ccccn2)nc(C(F)(F)F)c1Cl [compound 180] | at least 90% | at least 90% | 
CC(c1cccnc1)N(Cc1ccccn1)c1cc(C(F)(F)F)c(Cl)c(C(F)(F)F)n1 (centres unmarked) [compound 165] | at least 90% | at least 90% | 
N#Cc1c(C(F)(F)F)cc(N(Cc2ccccn2)Cc2cccc(N3CCOCC3)n2)nc1Cl [compound 326] | at least 90% | at least 90% | 
N#CCN(Cc1ccccn1)c1cc(C(F)(F)F)c(C#N)c(Cl)n1 [compound 238] | at least 90% |  | 
CC(c1ccccn1)N(Cc1ccccn1)c1cc(C(F)(F)F)c(Cl)c(Cl)n1 (centres unmarked) [compound 70] | at least 90% | at least 90% | 
NCCN(Cc1ccccn1)c1cc(C(F)(F)F)c(Cl)c(Cl)n1 [compound 50] | at least 90% |  | 
O=S(=O)(c1ccccn1)N(Cc1ccccn1)c1cc(C(F)(F)F)c(Cl)c(Cl)n1 [compound 277] | at least 90% |  | 
Cn1cccc1CN(Cc1ccccn1)c1cc(C(F)(F)F)c(C#N)c(Cl)n1 [compound 266] | at least 90% |  | 
FC(F)c1nc(N(Cc2ccccn2)Cc2ccccn2)cc(C(F)(F)F)c1Cl [compound 168] | at least 90% | at least 90% | 
NC(c1c(C(F)(F)F)cc(N(Cc2ccccn2)Cc2ccccn2)nc1Cl)C(F)(F)F (racemic) [compound 194] | at least 90% |  | 
Cc1cccnc1CNc1nc(Cl)c(Cl)c(C(F)(F)F)c1Cl [compound 69] | at least 90% |  | 
N#Cc1c(C(F)(F)F)cc(N(Cc2cccnc2)Cc2ccccn2)nc1Cl [compound 68] | at least 90% |  | 
CC(C)C(c1ccccn1)N(Cc1ccccn1)c1cc(C(F)(F)F)c(Cl)c(Cl)n1 (centres unmarked) [compound 76] | at least 90% |  | 
COC(CCN(Cc1ccccn1)c1cc(C(F)(F)F)c(Cl)c(Cl)n1)OC [compound 215] |  | at least 90% | at least 90%
CC(C)(C)CN(Cc1ccccn1)c1cc(C(F)(F)F)c(Cl)c(Cl)n1 [compound 141] |  | at least 90% | at least 90%
FC(F)(F)c1cc(N(Cc2ccccn2)Cc2ccccn2)nc(Cl)c1I [compound 78] |  | at least 90% | at least 90%
Nc1cccc(CN(Cc2ccccn2)c2cc(C(F)(F)F)c(Cl)c(Cl)n2)n1 [compound 303] | at least 90% | at least 90% | 
Cc1nc(N(Cc2ccccn2)Cc2ccccn2)cc(C(F)(F)F)c1Cl [compound 102] |  | at least 90% | at least 90%
FC(F)c1c(C(F)(F)F)cc(N(Cc2ccccn2)Cc2ccccn2)nc1Cl [compound 167] | at least 90% | at least 90% | 
CC(C)(C)OC(=O)CN(Cc1ccccn1)c1cc(C(F)(F)F)c(Cl)c(Cl)n1 [compound 230] |  | at least 90% | at least 90%
N#Cc1c(C(F)(F)F)cc(N(Cc2ccccn2)c2cccc3ccncc23)nc1Cl [compound 289] | at least 90% | at least 90% | 

Structure (SMILES) | mortality [1] | mortality of adults [2] | mortality [3]
COCOCC(COCOC)N(Cc1ccccn1)c1cc(C(F)(F)F)c(Cl)c(Cl)n1 [compound 213] |  | at least 90% | at least 90%
FC(F)(F)c1cc(N(Cc2ccccn2)Cc2ccccn2)nc(Br)c1Br [compound 93] |  | at least 90% | at least 90%
FC(F)(F)c1c(Cl)c(Cl)nc(N(Cc2ccccc2)Cc2ccccn2)c1Cl [compound 23] | at least 90% |  | 
COCCOC(=O)CN(Cc1ccccn1)c1cc(C(F)(F)F)c(Cl)c(Cl)n1 [compound 228] |  | at least 90% | at least 90%
C#CCN(Cc1ccccn1)c1cc(C(F)(F)F)c(Cl)c(Cl)n1 [compound 80] |  | at least 90% | at least 90%
CSc1nc(NCc2ccccn2)c(Cl)c(C(F)(F)F)c1SC [compound 125] | at least 90% |  | 
CC(c1cnccn1)N(Cc1ccccn1)c1cc(C(F)(F)F)c(Cl)c(C(F)(F)F)n1 (centres unmarked) [compound 287] | at least 90% | at least 90% | 
FC(F)(F)c1cnc(NCc2ccccn2)cc1C(F)(F)F [compound 13] |  | at least 90% | at least 90%
FC(F)(F)c1cc(N(Cc2ccccn2)Cc2ccccn2)ncc1Cl [compound 18] |  | at least 90% | at least 90%
N#Cc1nc(NCc2ccccn2)cc(C(F)(F)F)c1Cl [compound 56] | at least 90% |  | 
COCCCN(Cc1ccccn1)c1cc(C(F)(F)F)c(Cl)c(Cl)n1 [compound 214] |  | at least 90% | at least 90%
CC(=O)N(Cc1ccccn1)c1cc(C(F)(F)F)c(Cl)c(Cl)n1 [compound 89] |  | at least 90% | at least 90%
CCN(Cc1ccccn1)c1cc(C(F)(F)F)c(Cl)c(C(F)(F)F)n1 [compound 166] | at least 90% | at least 90% | 
Cc1c(N(Cc2ccccn2)Cc2ccccn2)nc(C(F)(F)F)c(Cl)c1C(F)(F)F [compound 208] | at least 90% |  | 
COCC(C)N(Cc1ccccn1)c1cc(C(F)(F)F)c(Cl)c(Cl)n1 (racemic) [compound 200] |  | at least 90% | at least 90%
FC(F)(F)c1cc(N(Cc2ccccn2)CC2CCCCO2)nc(Cl)c1Cl (centres unmarked) [compound 258] |  | at least 90% | at least 90%
CN(C)CCN(Cc1ccccn1)c1cc(C(F)(F)F)c(Cl)c(Cl)n1 [compound 62] |  | at least 90% | at least 90%
CN(Cc1ccccn1)c1nc(Cl)c(Cl)c(C(F)(F)F)c1Cl [Compound No. 10] | at least 90% |  | 
CON=Cc1c(C(F)(F)F)cc(N(Cc2ccccn2)Cc2ccccn2)nc1Cl [compound 198] | at least 90% | at least 90% | 
FC(F)(F)c1cc(N(Cc2ccc(Cl)nc2)Cc2ccccn2)nc(Cl)c1Cl [compound 107] |  | at least 90% | at least 90%
C[S+]([O-])c1c(C(F)(F)F)cc(N(Cc2ccccn2)Cc2ccccn2)nc1C(F)(F)F (racemic) [compound 135] | at least 90% | at least 90% | 

Structure (SMILES) | mortality [1] | mortality of adults [2] | mortality [3]
CCC(c1ccccn1)N(Cc1ccccn1)c1cc(C(F)(F)F)c(Cl)c(Cl)n1 (centres unmarked) [compound 79] |  | at least 90% | at least 90%
COCOC(C)CN(Cc1ccccn1)c1cc(C(F)(F)F)c(Cl)c(Cl)n1 (racemic) [compound 201] |  | at least 90% | at least 90%
FC(F)(F)c1cc(N(Cc2ccccn2)Cc2ccccn2)nc(Cl)c1Br [compound 77] |  | at least 90% | at least 90%
CCS(=O)(=O)CCN(Cc1ccccn1)c1cc(C(F)(F)F)c(Cl)c(Cl)n1 [compound 207] | at least 90% |  | 
O=[N+]([O-])c1cnc(NCc2ccccn2)cc1C(F)(F)F [Compound No. 11] | at least 90% |  | 
Fc1nc(N(Cc2ccccn2)Cc2ccccn2)cc(C(F)(F)F)c1Cl [compound 63] |  | at least 90% | at least 90%
CCOC(=O)CN(Cc1ccccn1)c1cc(C(F)(F)F)c(C#N)c(Cl)n1 [compound 224] | at least 90% |  | 
FC(F)(F)c1cc(N(CCSc2nccs2)Cc2ccccn2)nc(Cl)c1Cl [compound 251] | at least 90% |  | 
CC(c1ccccn1)N(Cc1ccccn1)c1nc(Cl)c(Cl)c(C(F)(F)F)c1Cl (centres unmarked) [compound 67] | at least 90% |  | 
C=C(C(=O)OC)N(Cc1ccccn1)c1cc(C(F)(F)F)c(Cl)c(Cl)n1 [compound 227] |  | at least 90% | at least 90%
FC(F)(F)c1cc(N(Cc2ccccn2)Cc2ccc3ccccc3n2)nc(Cl)c1Cl [compound 57] | at least 90% |  | 
FC(F)(F)c1cc(N(CCSc2ncccn2)Cc2ccccn2)nc(Cl)c1Cl [compound 250] | at least 90% |  | 
Cc1nnc(SCCN(Cc2ccccn2)c2cc(C(F)(F)F)c(Cl)c(Cl)n2)s1 [compound 252] | at least 90% |  | 
FC(F)(F)c1nc(NCc2ccccn2)c(Cl)c(C(F)(F)F)c1Cl [compound 87] |  | at least 90% | at least 90%
NC(=O)CN(Cc1ccccn1)c1cc(C(F)(F)F)c(Cl)c(Cl)n1 [compound 232] | at least 90% |  | 
FC(F)(F)c1cnc(NCc2ccccn2)c(Cl)c1C(F)(F)F [compound 88] |  | at least 90% | at least 90%
O=C(O)CN(Cc1ccccn1)c1cc(C(F)(F)F)c(Cl)c(Cl)n1 [compound 231] | at least 90% |  | 
FC(F)(F)c1c(Cl)c(Cl)nc(N(Cc2ccccn2)Cc2ncccn2)c1Cl [compound 59] | at least 90% |  | 
Cc1c(Cl)nc(NCc2ccccn2)c(C#N)c1C(F)(F)F [compound 179] | at least 90% |  | 
N#Cc1c(C(F)(F)F)cc(N(Cc2ccc3nccn3c2)Cc2ccccn2)nc1Cl [compound 327] | at least 90% |  | 
